Results from PMC5683655.
No constants are given. Whether binding was seen depends on the method and setting. Binding seen in cells or lysates may run through a third protein. Binding calls can cover weak binding; strength is not graded here.

By UniProt entry, the sequences of proteins in these tests, tags left out. Where a name states a change or a piece, a line headed by the entry shows the natural chain unless it says otherwise.
UniProt G5EF11: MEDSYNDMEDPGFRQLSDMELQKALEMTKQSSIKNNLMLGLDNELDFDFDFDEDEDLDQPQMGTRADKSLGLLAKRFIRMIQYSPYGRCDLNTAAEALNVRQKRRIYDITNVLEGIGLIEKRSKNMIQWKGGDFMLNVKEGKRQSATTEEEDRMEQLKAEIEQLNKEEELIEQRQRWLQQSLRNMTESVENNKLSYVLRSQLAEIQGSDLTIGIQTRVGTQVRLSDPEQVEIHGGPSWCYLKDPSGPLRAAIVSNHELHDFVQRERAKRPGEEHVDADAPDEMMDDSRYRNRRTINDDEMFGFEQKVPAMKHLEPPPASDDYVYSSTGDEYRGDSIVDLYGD

Tests used:
[1] = molecular target: EFL-1 (C. elegans (endogenous in late embryos)) (UniProt G5EF11); assay: co-IP; lin-35(n745) null (LIN-35 protein null) late embryo extracts; anti-EFL-1 or anti-LIN-37 antibody crosslinked to Protein A Dynabeads; 5 mg lysate, 2 hours at 4°C; lysis buffer 25 mM HEPES pH 7.6, 150 mM NaCl, 0.1% Nonidet P-40; western blot
[2] = molecular target: EFL-1 (C. elegans (endogenous in late embryos)) (UniProt G5EF11); assay: co-IP; wild-type (N2) late embryo extracts; anti-EFL-1 or anti-LIN-37 antibody crosslinked to Protein A Dynabeads; 5 mg lysate, 2 hours at 4°C; lysis buffer 25 mM HEPES pH 7.6, 150 mM NaCl, 0.1% Nonidet P-40; western blot

- binding [1]: binds
- binding [2]: binds
B1: DPL-1 (protein, UniProt Q22703 1-598)
chain: MNPTNYDPRIGQPAQSRPQVSLSMGRRIVQMPTGLPRSYQDESHNEPVGWDEPSGVGGSSGAGGQQSDKPTGLRHFSTKVCEKVKEKGLTNYNEVADELVADYFQNNLIKQIDVVKQEYDMKNIRRRVYDALNVLLAMNIITKSKKDIRWIGLPASASQEISRLEEEKSRREASISSKKQALEEMVLQIVSYKNLVERNRKNEHKNGRPENDTVLHLPFLIINTDKEANVECSVSSDKSEFLFSFDKKFEIHDDFEILKKLNLACSLETTNPTAEEVKTAKSFLPTLHQHYVDEIIANRKKVEAEKEEKRKQQQLIADQMSMNLSQAQYVEPTSSLAQMSYSSRFNRQLQEHLINDGSEDRSAAAGIMERDYDMDKNVNQGSASRGPMYNTYSPQKIRAQVNTPLQVPPVTKRYYVQKTQGPMKHDMTPVVRTVNRPYSTVPPDRRLSTGATSVNSGPVKYYVPQGHQPMHQPVGQRYRVRPQQPQMSHMGQPHQVQQRVVYPAGSISGHQLQPGQRIVTQRIVAPGGPHPPGTIVRKVIRKIVVNNPKQSPAQQVIQKKMMEQDMCTFERKTEQPMTSAQAAALIQHPQPEEYDYFQ
